From paper PMC9106302
Results are given in words; binding and its absence hold for the method and conditions named. In cells and extracts the contact can be indirect. Binding calls can cover weak binding; strength is not graded here. Tags and fused reporters may be left off the sequences shown.

Chains of the proteins cited; added tags and fusions are not shown. Lines headed by an entry give the natural chain unless they say otherwise; changes in a name come on top.
UniProt Q7K180: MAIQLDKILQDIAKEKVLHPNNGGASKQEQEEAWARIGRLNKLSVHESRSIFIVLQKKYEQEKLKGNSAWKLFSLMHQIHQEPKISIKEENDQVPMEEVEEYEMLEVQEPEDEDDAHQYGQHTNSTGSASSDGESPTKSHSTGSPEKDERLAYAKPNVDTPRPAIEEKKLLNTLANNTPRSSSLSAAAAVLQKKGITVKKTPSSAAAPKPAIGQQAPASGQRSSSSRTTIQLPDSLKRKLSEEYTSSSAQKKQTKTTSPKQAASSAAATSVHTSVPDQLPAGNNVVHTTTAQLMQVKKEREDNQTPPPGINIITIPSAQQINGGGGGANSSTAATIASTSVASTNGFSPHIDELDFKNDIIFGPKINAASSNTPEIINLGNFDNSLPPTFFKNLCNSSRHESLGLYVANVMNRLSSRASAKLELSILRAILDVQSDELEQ

Legend:
Assay in all cases: pull-down; untagged Cp190 and/or Cp60 co-expressed with the GFP-tagged bait in E. coli Rosetta; clarified lysate (50 mM tris pH 7.5, 200 mM NaCl, 5% glycerol, 25 mM imidazole) on GFP-binder resin 1 hour at 4°C; SDS-PAGE and Coomassie staining
[1] = molecular target: T1, GFP-tagged CTCF[610-818] (C terminus) (D. melanogaster) (UniProt Q9VS55)
T1 sequence: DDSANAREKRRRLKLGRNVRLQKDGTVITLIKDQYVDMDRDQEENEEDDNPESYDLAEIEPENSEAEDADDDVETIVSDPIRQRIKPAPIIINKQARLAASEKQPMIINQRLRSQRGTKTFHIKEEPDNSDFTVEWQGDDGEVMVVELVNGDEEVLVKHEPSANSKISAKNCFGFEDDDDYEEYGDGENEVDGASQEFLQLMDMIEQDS

[2] = molecular target: T2, GFP-tagged Ibf2[1-195] (full length) (D. melanogaster) (UniProt Q9VHG6)
T2 sequence: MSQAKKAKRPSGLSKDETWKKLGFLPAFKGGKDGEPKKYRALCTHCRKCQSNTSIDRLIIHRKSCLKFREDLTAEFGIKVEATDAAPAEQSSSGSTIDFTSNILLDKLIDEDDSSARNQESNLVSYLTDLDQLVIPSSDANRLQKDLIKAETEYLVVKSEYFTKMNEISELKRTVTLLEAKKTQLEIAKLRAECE

[3] = molecular target: T3, GFP-tagged Ibf1[1-242] (full length) (D. melanogaster) (UniProt Q9VHG5)
T3 sequence: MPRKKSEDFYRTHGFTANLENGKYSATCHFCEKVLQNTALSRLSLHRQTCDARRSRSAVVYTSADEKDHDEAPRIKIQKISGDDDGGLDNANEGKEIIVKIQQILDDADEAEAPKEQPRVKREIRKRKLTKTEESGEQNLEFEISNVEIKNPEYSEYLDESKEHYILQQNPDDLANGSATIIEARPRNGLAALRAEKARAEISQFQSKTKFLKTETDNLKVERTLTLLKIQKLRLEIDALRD

[4] = molecular target: T4, untagged full-length Cp190[1-1096], recombinant (D. melanogaster) (UniProt Q24478)
T4 sequence: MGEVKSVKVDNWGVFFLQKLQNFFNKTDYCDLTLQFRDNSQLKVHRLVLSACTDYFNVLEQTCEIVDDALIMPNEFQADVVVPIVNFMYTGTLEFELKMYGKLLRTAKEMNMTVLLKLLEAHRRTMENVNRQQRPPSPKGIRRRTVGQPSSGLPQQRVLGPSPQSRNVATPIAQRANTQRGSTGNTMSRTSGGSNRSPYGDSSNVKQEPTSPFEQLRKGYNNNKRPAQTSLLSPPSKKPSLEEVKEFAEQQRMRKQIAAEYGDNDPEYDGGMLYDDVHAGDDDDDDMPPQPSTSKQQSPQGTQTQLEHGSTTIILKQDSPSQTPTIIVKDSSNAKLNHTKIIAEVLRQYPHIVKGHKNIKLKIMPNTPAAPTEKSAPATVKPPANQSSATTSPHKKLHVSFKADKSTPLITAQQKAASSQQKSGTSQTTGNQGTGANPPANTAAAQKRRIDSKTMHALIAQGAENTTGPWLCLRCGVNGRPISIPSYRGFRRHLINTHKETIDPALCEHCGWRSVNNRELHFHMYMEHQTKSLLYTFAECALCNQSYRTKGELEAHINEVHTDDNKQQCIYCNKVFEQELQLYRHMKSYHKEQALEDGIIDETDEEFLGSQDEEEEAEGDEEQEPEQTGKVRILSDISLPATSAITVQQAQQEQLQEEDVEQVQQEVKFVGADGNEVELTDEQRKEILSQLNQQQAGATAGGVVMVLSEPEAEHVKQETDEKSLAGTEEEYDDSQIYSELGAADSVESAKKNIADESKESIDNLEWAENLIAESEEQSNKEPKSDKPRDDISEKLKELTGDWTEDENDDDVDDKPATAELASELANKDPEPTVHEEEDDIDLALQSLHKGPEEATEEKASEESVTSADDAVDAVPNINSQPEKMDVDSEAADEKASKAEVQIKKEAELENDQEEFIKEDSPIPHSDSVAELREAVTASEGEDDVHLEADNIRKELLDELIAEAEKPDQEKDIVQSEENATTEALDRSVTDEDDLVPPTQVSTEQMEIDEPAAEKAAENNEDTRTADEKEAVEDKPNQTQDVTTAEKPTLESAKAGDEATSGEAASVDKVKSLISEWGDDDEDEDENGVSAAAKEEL

[5] = molecular target: T5, GFP-tagged Su(Hw)[724-941] (C terminus) (D. melanogaster) (UniProt P08970)
T5 sequence: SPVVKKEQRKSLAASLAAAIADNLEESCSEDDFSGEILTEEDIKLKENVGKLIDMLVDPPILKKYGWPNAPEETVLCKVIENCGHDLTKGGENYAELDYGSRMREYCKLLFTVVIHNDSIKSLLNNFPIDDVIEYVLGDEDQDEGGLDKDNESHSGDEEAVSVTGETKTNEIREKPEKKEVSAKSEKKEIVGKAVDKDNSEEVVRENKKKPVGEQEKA

[6] = molecular target: T6, GFP-tagged Su(Hw)[1-219] (N terminus) (GFP-3C-bait-3C-His6) (D. melanogaster) (UniProt P08970)
T6 sequence: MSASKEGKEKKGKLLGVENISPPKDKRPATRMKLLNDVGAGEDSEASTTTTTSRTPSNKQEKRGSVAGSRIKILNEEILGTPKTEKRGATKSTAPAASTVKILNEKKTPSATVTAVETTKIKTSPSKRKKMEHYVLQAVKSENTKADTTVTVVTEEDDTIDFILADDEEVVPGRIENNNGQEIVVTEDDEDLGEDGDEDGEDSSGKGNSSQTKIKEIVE

Measured: binding

untagged Cp60[1-440], recombinant (from UniProt Q7K180)
binds: all assays above
